The numbers were not newly measured in patent US9493429B2, “Substituted benzoxazoles and methods of use thereof” (GENENTECH, INC., priority 2013, dated 2016), which cites them from elsewhere.

Each structure is given as a SMILES string.

For this series the following is noted: administered topically (Lidoderm patch).

On to `CCN(CC)CC(=O)Nc1c(C)cccc1C` [lidocaine], for which the plasma concentrations result is given as “about 1 μM”.
